PubChem BioAssay AID1508588, Peter MacCallum Cancer Centre | 2020
The deposit covers about 18,000 reagents; shown is an unselected part. 790 of them (4.4%) were called active. 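Calls rest on a combination of fold-change classes in drug and vehicle arms, not all shown here.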 Entries without a mark were called inactive. Reagent sequences are not shown.

Assay: 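Knock-downs boosting vemurafenib effects on melanoma cell growth or lactate release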 (primary screen)
System: human WM266.4 melanoma cells (BRAF V600 mutant)
Reagents: siRNA pool against human genes, 40 nM
Time to read-out: 96 h from transfection to read-out
Treatment: vemurafenib 300 nM (about IC25), added 48 h after transfection, for 48 h; comparison arm got DMSO vehicle only
Read-out: 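Ratios to non-targeting siRNA for cell gain, counted as DAPI nuclei after minus before drug and averaged over two replicates, and for absorbance-read medium lactate per cell; both binned into fold-change classes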
Direction: cell gain with vemurafenib: higher = more cell gain than with non-targeting siRNA; lactate per cell with vemurafenib: higher = more lactate made per cell
Call rule: 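Enhancement is called by pairing each knock-down's vehicle-arm and drug-arm fold-change classes for viability or glycolysis; which class combinations qualify is not given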
Calls: active = enhances vemurafenib effect; inactive = no enhancement seen

gene knocked down	cell gain with vemurafenib	lactate per cell with vemurafenib
H2AC18 (H2A clustered histone 18)	0.37	1.47
ZNF555 (zinc finger protein 555)	0.86	0.73
ULBP3 (UL16 binding protein 3)	0.63	0.82
SCAF11 (SR-related CTD associated factor 11)	0.08	2.63
FOXQ1 (forkhead box Q1)	0.73	0.96
OR1F1 (olfactory receptor family 1 subfamily F member 1)	0	0.35
OXSR1 (oxidative stress responsive kinase 1)	1.05	1.25
ATF6B (activating transcription factor 6 beta)	0.09	1.89
TENM1 (teneurin transmembrane protein 1)	0.17 (active)	1.22
B4GALT5 (beta-1,4-galactosyltransferase 5)	0.58	0.9
ZNF710 (zinc finger protein 710)	0.21	1.36
GUCA1B (guanylate cyclase activator 1B)	1.03	0.58
USP7 (ubiquitin specific peptidase 7)	0.35	1.27
PKP2 (plakophilin 2)	0.86	0.68
GMFG (glia maturation factor gamma)	0.7	0.52
RASA2 (RAS p21 protein activator 2)	0.91	0.86
EPHA1 (EPH receptor A1)	0.33	0.84
VASH1 (vasohibin 1)	0.26	1.71
DDIAS (DNA damage induced apoptosis suppressor)	0.76	0.8
HEY2	0.65	0.94
GPD1L (glycerol-3-phosphate dehydrogenase 1 like)	0.28	2.34
ACP3 (acid phosphatase 3)	0.69	0.8
IL18RAP (interleukin 18 receptor accessory protein)	0.66	0.94
ZNF449 (zinc finger protein 449)	0.39	1.73
CRYGA (crystallin gamma A)	0.07 (active)	0.64
AMPH (amphiphysin)	0.68	0.92
PSPC1 (paraspeckle component 1)	0.34	1.12
ATXN3 (ataxin 3)	0.82	0.6
RGCC (regulator of cell cycle)	0.62	0.54
RFLNA (refilin A)	0.15	1.52
MC2R (melanocortin 2 receptor)	0.61 (active)	0.68
MSN (moesin)	1.16	0.64
BCAS2 (BCAS2 pre-mRNA processing factor)	0.47	0.93
MAGEA8 (MAGE family member A8)	0.96	1.65
VCF1 (VCP nuclear cofactor family member 1)	0.49	1.08
IP6K3 (inositol hexakisphosphate kinase 3)	0.61	0.86
ANXA4 (annexin A4)	0.36	1.31
FOXN1 (forkhead box N1)	0.64	0.8
SNRPF (small nuclear ribonucleoprotein polypeptide F)	0.11	1.18
ADA (adenosine deaminase)	0.92	0.66
ACTN2 (actinin alpha 2)	0.56	0.77
RAB32 (RAB32, member RAS oncogene family)	0.53	0.74
BMP3 (bone morphogenetic protein 3)	0.21	1.3
TRIP4 (thyroid hormone receptor interactor 4)	0.09	1.91
ECHS1 (enoyl-CoA hydratase, short chain 1)	0.77	0.9
NDUFV3 (NADH:ubiquinone oxidoreductase subunit V3)	0.73	0.64
SOD1 (superoxide dismutase 1)	0.92	1.7
NME9 (NME/NM23 family member 9)	0.75	1.34
KRT85 (keratin 85)	0.65	1.21
VPS13A (vacuolar protein sorting 13 homolog A)	0.64	1.02
SLCO6A1	1.37	0.8
CASP5 (caspase 5)	0.46	0.77
ALPK2 (alpha kinase 2)	0.45	0.91
SNX20 (sorting nexin 20)	0.62	1.68
MT1X (metallothionein 1X)	0.77	2.47
ACAA2 (acetyl-CoA acyltransferase 2)	0.88	0.55
LORICRIN (loricrin cornified envelope precursor protein)	0.78	2.13

4 entries from above, set out differently:
{"gene knocked down":"NME9 (NME/NM23 family member 9)","cell gain with vemurafenib":0.75,"lactate per cell with vemurafenib":1.34}
{"gene knocked down":"KRT85 (keratin 85)","cell gain with vemurafenib":0.65,"lactate per cell with vemurafenib":1.21}
{"gene knocked down":"VPS13A (vacuolar protein sorting 13 homolog A)","cell gain with vemurafenib":0.64,"lactate per cell with vemurafenib":1.02}
{"gene knocked down":"SLCO6A1","cell gain with vemurafenib":1.37,"lactate per cell with vemurafenib":0.8}
